PMC12499889, “Voltage-matrix nanopore profiling for the discrimination of protein mixtures”

Target: T1, carcinoembryonic antigen (CEA) (UniProt P06731)
T1 sequence (looked up, limits assumed): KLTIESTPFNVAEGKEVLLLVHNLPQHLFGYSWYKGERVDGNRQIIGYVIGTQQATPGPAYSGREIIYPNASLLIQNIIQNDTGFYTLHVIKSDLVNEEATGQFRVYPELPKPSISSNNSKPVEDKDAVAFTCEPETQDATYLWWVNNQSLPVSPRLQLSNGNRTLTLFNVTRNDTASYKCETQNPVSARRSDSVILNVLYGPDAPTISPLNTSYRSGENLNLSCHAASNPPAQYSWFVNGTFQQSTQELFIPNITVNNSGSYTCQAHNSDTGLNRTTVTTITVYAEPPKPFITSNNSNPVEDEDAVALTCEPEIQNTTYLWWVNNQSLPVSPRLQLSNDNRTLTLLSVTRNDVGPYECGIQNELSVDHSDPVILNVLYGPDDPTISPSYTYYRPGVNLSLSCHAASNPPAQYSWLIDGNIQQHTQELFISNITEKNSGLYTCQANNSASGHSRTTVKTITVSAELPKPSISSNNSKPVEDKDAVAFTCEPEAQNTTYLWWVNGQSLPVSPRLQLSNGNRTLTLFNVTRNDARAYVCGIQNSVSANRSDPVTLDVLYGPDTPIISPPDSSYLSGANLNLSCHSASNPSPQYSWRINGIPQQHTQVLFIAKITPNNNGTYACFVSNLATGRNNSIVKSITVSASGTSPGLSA
Assay: binding assay
Conditions: reported value, assay method and conditions not given in this paper; 3.6 M LiCl, 10 mM HEPES-KOH pH 8.0; 1 uM aptamer incubated with 10 nM CEA for 1 h; temperature not stated; nanopore at -50 to -300 mV; commercial protein; single-stranded DNA

For “TCGCGCGAGTCGTCTGGGAGCTACGTTTAGCGAGTCCGACGCTCGGTGCCTCTTCGGGAGGACGATGCGG [CEA DNA aptamer]”, which Kd is on record?
Its Kd is 37.8 nM.

Construct, isoform or probe ends are uncertain for at least one entry. Where a protein sequence is shown, tags need not be part of it.
